Data on 69 compounds can be found in the supplement of paper PMC11542785.

The test system of this experiment is Drosophila melanogaster DPAGT1 (Alg7) RNAi eye model. Description: eye size Z-score vs DMSO-treated DPAGT1 model flies; higher = larger eye (suppression of DPAGT1 phenotype). The conditions noted are these: 5 uM.

Where a name gives a salt, the structure may show the parent alone. Some of the results follow. Repeats are few or missing, and single values can be far off.

On to `C#CCN(C)Cc1ccccc1` [Pargyline hydrochloride], for which the “eye size Z-score” value amounted to 0.75. Consider `COc1ccc2cc(CCC(C)=O)ccc2c1` [Nabumetone], for which, for the setting “female”, the “eye size Z-score” value was -1.41.

`C[C@H]1[C@@H](O)O[C@@H]2O[C@@]3(C)CC[C@H]4[C@H](C)CC[C@@H]1[C@@]24OO3` [Artenimol]: the “eye size Z-score” value was -1.18. For `CCn1cc(C(=O)O)c(=O)c2ccc(C)nc21` [Nalidixic acid sodium salt], the “eye size Z-score” value was -0.08. In the case of `CCN(CC)CCNC(=O)c1cc(S(C)(=O)=O)ccc1OC` [Tiapride hydrochloride], the “eye size Z-score” value is -0.17. Take `O=C(CCCN1CC=C(n2c(=O)[nH]c3ccccc32)CC1)c1ccc(F)cc1` [Droperidol]: the “eye size Z-score” value is 0.75.

For the compound `CC1(C)OC(=O)NC1=O` [Dimethadione], the “eye size Z-score” value was -1.26. In the case of `N=C(N)NCC1COC2(CCCCC2)O1` (centres undefined) [Guanadrel sulfate], the “eye size Z-score” value was determined as 0.16.

As for `Cn1nnnc1SCC1=C(C(=O)O)N2C(=O)[C@@H](NC(=O)[C@H](O)c3ccccc3)[C@H]2SC1` [Cefamandole sodium salt], the “eye size Z-score” value was determined as 0.82. The same measure, in the same setting: for `CCC[C@H](N[C@@H](C)C(=O)N1[C@H](C(=O)O)C[C@@H]2CCCC[C@@H]21)C(=O)OCC` [Perindopril] the value was 0.34; for `COc1ccc(NS(=O)(=O)c2ccc(N)cc2)nn1` [Sulfamethoxypyridazine], 0.13; for `Nc1ccc(S(=O)(=O)c2ccc(N)cc2)cc1` [Dapsone], 0.94.

Consider `OCCN1CCN(CCCN2c3ccccc3Sc3ccc(Cl)cc32)CC1` [Perphenazine], for which the “eye size Z-score” value was 0.67. On the same count and under the same terms, to `CN(C)CCc1c[nH]c2ccc(Cn3cncn3)cc12` [Rizatriptan benzoate] belongs 0; to `C=C1C[C@H]2[C@@H]3C=C(C)C4=CC(=O)CC[C@]4(C)[C@H]3CC[C@]2(C)[C@@]1(OC(C)=O)C(C)=O` [Melengestrol acetate], 1.18. For the compound `CC(=O)Oc1cccc2c1C(=O)c1c(OC(C)=O)cc(C(=O)O)cc1C2=O` [Diacerein], the “eye size Z-score” value was -0.3.

Turning to `CN1CCCCC1CCN1c2ccccc2Sc2ccc([S+](C)[O-])cc21` (centres undefined) [Mesoridazine besylate], the “eye size Z-score” value was 0.61. Turning to `NC(=O)N/N=C/c1ccc([N+](=O)[O-])o1` [Nitrofural], the “eye size Z-score” value is -0.01. On the same count and under the same terms, to `CN(C)CCC[C@@]1(c2ccc(F)cc2)OCc2cc(C#N)ccc21` [Escitalopram oxalate] belongs -1.48. The same measure, in the same setting: to `CCCC(=O)Nc1ncnc2c1ncn2[C@@H]1O[C@@H]2COP(=O)(O)O[C@H]2[C@H]1OC(=O)CCC` [Bucladesine sodium salt] belongs -0.3. With `CN1CCCC(n2nc(Cc3ccc(Cl)cc3)c3ccccc3c2=O)CC1` (centres undefined) [Azelastine hydrochloride], the “eye size Z-score” value was -1.08. Take `CCN1CCN(C(=O)N[C@@H](C(=O)N[C@@H]2C(=O)N3[C@@H]2SC(C)(C)[C@@H]3C(=O)O)c2ccccc2)C(=O)C1=O` [Piperacillin sodium salt]: the “eye size Z-score” value was found to be 1.21. For `CO[C@@H]1[C@@H](OC(N)=O)[C@@H](O)[C@H](Oc2ccc3c(O)c(NC(=O)c4ccc(O)c(CC=C(C)C)c4)c(=O)oc3c2C)OC1(C)C` [Novobiocin sodium salt], the “eye size Z-score” value turned out to be 0.2.

As for `CC(C)(C)NC[C@H](O)COc1nsnc1N1CCOCC1` [Timolol maleate salt], the “eye size Z-score” value is -0.14. Same read-out and setting: for `O=C(Nc1cccc2c(=O)cc(-c3nnn[nH]3)oc12)c1ccc(OCCCCc2ccccc2)cc1` [Pranlukast] the value was -0.16; for `CCOC(=O)[C@H](CCc1ccccc1)N[C@H]1CCc2ccccc2N(CC(=O)O)C1=O` [Benazepril hydrochloride], -0.2; for `COC1=C(OC)C(=O)C(CCCCCCCCCCO)=C(C)C1=O` [Idebenone], 0.93. Still for that read-out and setting: for `CCOC(=O)OC(C)OC(=O)[C@@H]1N2C(=O)[C@@H](NC(=O)[C@H](N)c3ccccc3)[C@H]2SC1(C)C` (some centres undefined) [Bacampicillin hydrochloride] the value was 0.32; for `COc1ccc(CN(CCN(C)C)c2ccccn2)cc1` [Pyrilamine maleate], -0.28. In the case of `CCCNC(C)C(=O)Nc1ccccc1C` (centres undefined) [Prilocaine hydrochloride], the “eye size Z-score” value was -0.36. Still for that read-out and setting: for `CC(COc1ccccc1)N(CCCl)Cc1ccccc1` (centres undefined) [Phenoxybenzamine hydrochloride] the value was -0.52; for `COc1cc(/C=C/C(=O)N2CCN(CC(=O)N3CCCC3)CC2)cc(OC)c1OC` [Cinepazide maleate], -0.25. Same read-out and setting: to `CC(=O)c1ccc(S(=O)(=O)NC(=O)NC2CCCCC2)cc1` [Acetohexamide] belongs -0.12; to `C[C@H](CCc1ccccc1)NC[C@H](O)c1ccc(O)c(C(N)=O)c1` [Dilevalol], 0.02; to `CCCCC[C@H](O)/C=C/[C@@H]1[C@@H](C/C=C\CCCC(=O)O)[C@@H](O)C[C@H]1O` [Dinoprost trometamol], 0.56. Consider `CCOC(=O)c1ccc(OC(=O)CCCCCNC(=N)N)cc1` [Gabexate mesilate], for which the “eye size Z-score” value (female) turned out to be 1.09. Turning to `O=C(NC1CCN(CCCCC2(C(=O)NCC(F)(F)F)c3ccccc3-c3ccccc32)CC1)c1ccccc1-c1ccc(C(F)(F)F)cc1` [Lomitapide], the “eye size Z-score” value was found to be 0.39. For `CCCN[C@H]1CCc2nc(N)sc2C1` [Pramipexole dihydrochloride], the “eye size Z-score” value worked out at 0.1.

On to `Cc1cc(=O)oc2cc(O)ccc12` [Hymecromone], for which the “eye size Z-score” value is -0.76. Still for that read-out and setting: for `CN(C)CCCN1c2ccccc2[S+]([O-])c2ccc(Cl)cc21` (centres undefined) [Chlorpromazine Sulfoxide] the value was -1.03; for `Cc1nc2ccccc2n1Cc1ccc(Cl)cc1` [Chlormidazole], 0.71; for `Cn1c(=O)c2nc[nH]c2n(C)c1=O` [Theophylline monohydrate], -0.16. The same measure, in the same setting: to `c1ccc(C2CN3CCSC3=N2)cc1` (centres undefined) [Tetramisole hydrochloride] belongs -0.15.

For the compound `C=C1c2cccc(O)c2C(=O)C2=C(O)[C@]3(O)C(=O)C(C(N)=O)=C(O)[C@@H](N(C)C)[C@@H]3[C@@H](O)[C@H]12` [Methacycline hydrochloride], the “eye size Z-score” value was 0.02. Same read-out and setting: for `Cc1scc2c1N(C(=O)CN1CCN(C)CC1)c1ccccc1NC2=O` [Telenzepine dihydrochloride] the value was -1.31.

As for `CO[C@H]1/C=C/O[C@@]2(C)Oc3c(C)c(O)c4c(c3C2=O)C2=NC3(CCN(CC(C)C)CC3)NC2=C(NC(=O)/C(C)=C\C=C\[C@H](C)[C@H](O)[C@@H](C)[C@@H](O)[C@@H](C)[C@H](OC(C)=O)[C@@H]1C)C4=O` [Rifabutin], the “eye size Z-score” value was 0.27.

With `O=C(O)Cc1csc(-c2ccc(Cl)cc2)n1` [Fenclozic acid], the “eye size Z-score” value is 0.4.

As for `O=C(Cn1ccnc1[N+](=O)[O-])NCCO` [Etanidazole], the “eye size Z-score” value was determined as 0.64. As for `CN(C)CCN(Cc1cccs1)c1ccccn1` [Methapyrilene hydrochloride], the “eye size Z-score” value is 0.27. The same measure, in the same setting: for `COc1c(O[C@@H]2O[C@H](CO)[C@@H](O)[C@H](O)[C@H]2O)cc2c(c1OC)-c1ccc(SC)c(=O)cc1[C@@H](NC(C)=O)CC2` [Thiocolchicoside] the value was 0.01; for `CO[C@@H]1[C@@H](O[C@@H]2O[C@H](C)[C@@H](O[C@H]3C[C@@](C)(O)[C@@H](O)[C@H](C)O3)[C@H](N(C)C)[C@H]2O)[C@@H](CC=O)C[C@@H](C)[C@@H](O[C@H]2CC[C@H](N(C)C)[C@@H](C)O2)/C=C/C=C/C[C@@H](C)OC(=O)C[C@H]1OC(C)=O` [Acetyl spiramycin], 1.77.

In the case of `Clc1ccc(C(Cn2ccnc2)OCc2c(Cl)cccc2Cl)c(Cl)c1` (centres undefined) [Isoconazole], the “eye size Z-score” value is 1.04. In the case of `NC(=O)N1c2ccccc2C=Cc2ccccc21` [Carbamazepine], the “eye size Z-score” value is 1.37. Still for that read-out and setting: for `Nc1nc(F)nc2c1ncn2[C@@H]1O[C@H](CO)[C@@H](O)[C@@H]1O` [Fludarabine] the value was -0.18. With `Nc1nc(=O)c2nc(CNc3ccc(C(=O)N[C@@H](CCC(=O)O)C(=O)O)cc3)cnc2[nH]1` [Folic acid], the “eye size Z-score” value is -0.38.

For the compound `CC(=O)N[C@@H](CC(C)C)C(=O)O` [N-Acetyl-L-leucine], the “eye size Z-score” value was -0.48. The same measure, in the same setting: to `CC(C)C(=O)OCC(=O)[C@@]12O[C@H](C3CCCCC3)O[C@@H]1C[C@H]1[C@@H]3CCC4=CC(=O)C=C[C@]4(C)[C@H]3[C@@H](O)C[C@@]12C` [Ciclesonide] belongs -0.22; to `O=C1CN2Cc3c(ccc(Cl)c3Cl)N=C2N1` [Anagrelide], 0.5; to `CC(C)NCC(O)COc1ccc(COCCOC(C)C)cc1` (centres undefined) [Bisoprolol hemifumarate], 0.52. Same read-out and setting: to `Nc1nc(=S)c2ncn([C@@H]3O[C@H](CO)[C@@H](O)[C@H]3O)c2[nH]1` [Thioguanosine] belongs -0.3; to `CCOCC(O)COc1ccc(NC(=O)CC[S+](C)C)cc1` (centres undefined) [Suplatast Tosylate], 0.6; to `O=C(NCC(O)CO)c1c(I)c(C(=O)NCC(O)CO)c(I)c(N(CCO)C(=O)CO)c1I` (centres undefined) [Ioversol], 0. The same measure, in the same setting: to `CO/N=C(\C(=O)N[C@@H]1C(=O)N2C(C(=O)O)=C(COC(N)=O)CS[C@H]12)c1ccco1` [Cefuroxime sodium salt] belongs 0.28. Take `Nc1ccc(S(=O)(=O)Nc2ccnn2-c2ccccc2)cc1` [Sulfaphenazole]: the “eye size Z-score” value came to 0.34.

`CCC(=O)c1c(O)cc(O)cc1O` [Flopropione]: the “eye size Z-score” value was -0.13. On the same count and under the same terms, to `Nc1ccc2cc3ccc(N)cc3nc2c1` [Proflavine hemisulfate] belongs 0.92; to `Cc1cc(CC(=O)O)n(C)c1C(=O)c1ccc(Cl)cc1` [Zomepirac sodium salt], 0.11. The same measure, in the same setting: to `CC[C@H]1OC(=O)[C@H](C)[C@@H](O[C@H]2C[C@@](C)(OC)[C@@H](O)[C@H](C)O2)[C@H](C)[C@@H](O[C@@H]2O[C@H](C)C[C@H](N(C)C)[C@H]2O)[C@](C)(O)C[C@@H](C)[C@@H]2N[C@@H](COCCOC)O[C@H]([C@H]2C)[C@]1(C)O` [Dirithromycin] belongs -0.95. The same measure, in the same setting: to `O=C1CC2(CCCC2)CC(=O)N1CCCCN1CCN(c2ncccn2)CC1` [Buspirone hydrochloride] belongs 1.23.
